Experimental data reported in publication PMC3247243.
Results are given in words; binding and its absence hold for the method and conditions named. In cells and extracts the contact can be indirect. Binding can be weak; no strength is given.

Chains of the proteins cited; added tags and fusions are not shown. Lines headed by an entry give the natural chain unless they say otherwise; changes in a name come on top.
UniProt Q8WX93: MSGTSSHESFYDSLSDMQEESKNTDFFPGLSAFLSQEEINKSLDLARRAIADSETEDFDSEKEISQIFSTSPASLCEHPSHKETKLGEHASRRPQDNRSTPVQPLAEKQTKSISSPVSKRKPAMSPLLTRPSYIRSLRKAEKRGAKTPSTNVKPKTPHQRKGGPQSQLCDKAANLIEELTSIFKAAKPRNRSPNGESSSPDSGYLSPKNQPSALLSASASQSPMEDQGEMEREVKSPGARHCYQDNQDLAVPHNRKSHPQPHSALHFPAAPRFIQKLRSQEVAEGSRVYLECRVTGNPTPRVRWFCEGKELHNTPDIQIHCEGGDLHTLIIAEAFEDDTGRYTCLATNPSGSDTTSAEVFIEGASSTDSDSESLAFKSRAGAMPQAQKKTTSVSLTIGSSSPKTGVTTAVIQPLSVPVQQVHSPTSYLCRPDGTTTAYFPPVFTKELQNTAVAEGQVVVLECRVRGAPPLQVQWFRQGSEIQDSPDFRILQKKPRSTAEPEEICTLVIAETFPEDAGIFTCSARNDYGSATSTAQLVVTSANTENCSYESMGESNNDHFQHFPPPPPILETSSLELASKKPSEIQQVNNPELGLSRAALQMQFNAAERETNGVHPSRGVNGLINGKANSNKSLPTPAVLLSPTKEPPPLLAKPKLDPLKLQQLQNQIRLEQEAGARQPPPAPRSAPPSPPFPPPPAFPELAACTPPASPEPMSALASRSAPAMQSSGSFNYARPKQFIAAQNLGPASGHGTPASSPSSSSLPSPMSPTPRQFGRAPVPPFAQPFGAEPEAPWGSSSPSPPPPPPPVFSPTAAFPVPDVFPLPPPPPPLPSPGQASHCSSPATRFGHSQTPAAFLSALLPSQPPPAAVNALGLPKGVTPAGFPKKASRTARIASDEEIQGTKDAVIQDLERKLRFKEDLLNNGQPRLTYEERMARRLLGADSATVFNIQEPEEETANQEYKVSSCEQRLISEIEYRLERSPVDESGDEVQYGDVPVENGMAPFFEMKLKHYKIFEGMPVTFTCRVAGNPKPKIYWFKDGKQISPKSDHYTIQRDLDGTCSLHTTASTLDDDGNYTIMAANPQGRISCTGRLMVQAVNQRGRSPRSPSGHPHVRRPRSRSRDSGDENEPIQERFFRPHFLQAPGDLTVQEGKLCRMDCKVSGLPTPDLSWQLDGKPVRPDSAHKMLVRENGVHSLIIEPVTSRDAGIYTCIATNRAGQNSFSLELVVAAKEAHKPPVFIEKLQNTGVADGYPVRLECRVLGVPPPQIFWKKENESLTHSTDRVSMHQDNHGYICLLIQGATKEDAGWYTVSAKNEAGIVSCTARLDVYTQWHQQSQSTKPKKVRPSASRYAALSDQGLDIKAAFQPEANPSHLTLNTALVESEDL
UniProt P00519: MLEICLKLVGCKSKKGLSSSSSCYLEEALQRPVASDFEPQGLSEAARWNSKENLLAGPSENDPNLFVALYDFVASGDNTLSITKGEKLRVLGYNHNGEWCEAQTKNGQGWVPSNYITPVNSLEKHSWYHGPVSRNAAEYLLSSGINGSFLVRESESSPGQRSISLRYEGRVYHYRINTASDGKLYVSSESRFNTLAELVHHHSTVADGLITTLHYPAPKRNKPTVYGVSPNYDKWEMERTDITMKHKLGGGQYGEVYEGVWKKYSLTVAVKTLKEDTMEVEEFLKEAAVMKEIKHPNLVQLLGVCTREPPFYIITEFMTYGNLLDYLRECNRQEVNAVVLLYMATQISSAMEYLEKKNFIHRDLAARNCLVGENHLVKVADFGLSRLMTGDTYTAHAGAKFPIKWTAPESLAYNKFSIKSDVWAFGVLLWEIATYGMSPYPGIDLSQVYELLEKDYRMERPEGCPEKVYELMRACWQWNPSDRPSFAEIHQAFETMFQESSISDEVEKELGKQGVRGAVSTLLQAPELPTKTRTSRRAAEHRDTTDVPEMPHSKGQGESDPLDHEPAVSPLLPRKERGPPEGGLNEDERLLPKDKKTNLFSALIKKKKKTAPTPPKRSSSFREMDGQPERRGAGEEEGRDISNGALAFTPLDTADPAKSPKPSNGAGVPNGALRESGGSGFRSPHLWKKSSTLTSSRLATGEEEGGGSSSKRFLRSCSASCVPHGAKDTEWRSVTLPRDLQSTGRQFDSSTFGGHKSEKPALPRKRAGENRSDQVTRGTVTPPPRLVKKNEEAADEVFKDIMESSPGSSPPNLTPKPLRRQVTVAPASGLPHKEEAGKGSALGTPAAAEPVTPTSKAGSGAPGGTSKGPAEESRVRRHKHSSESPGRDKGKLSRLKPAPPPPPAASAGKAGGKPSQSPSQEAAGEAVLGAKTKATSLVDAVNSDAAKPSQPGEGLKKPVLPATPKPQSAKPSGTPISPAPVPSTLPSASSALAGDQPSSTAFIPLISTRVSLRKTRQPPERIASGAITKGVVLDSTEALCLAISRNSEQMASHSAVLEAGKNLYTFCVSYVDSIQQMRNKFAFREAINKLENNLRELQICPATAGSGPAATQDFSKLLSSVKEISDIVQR

Target: endogenous palladin (human (endogenous in MDA-MB-231)) (UniProt Q8WX93)
Assay: co-IP; MDA-MB-231 lysates immunoprecipitated with anti-palladin antibody or control IgG, blotted with anti-Abl and anti-palladin; also serum-starved cells with or without EGF stimulation

Which binding does the source give for “endogenous Abl tyrosine kinase (from UniProt P00519 1-1130) (enzyme)” here?
The binding was “binds”.
